At least one compound was matched to its structure with a doubt left.
Tested on: S. oneidensis biofilms
Assay: Stop-of-flow-induced detachment of biofilms in hydrodynamic flow chamber (CLSM, COMSTAT)
Format: cell-based, Shewanella oneidensis MR-1
Settings: biofilms grown 12 h in LM; 10 μg/ml rifampicin for 10 or 40 minutes before flow stop; compared with untreated cells
Description: Transcription is not required for the oxygen starvation-induced detachment. To directly test whether transcription is required for detachment upon rapid decrease in molecular oxygen concentration, we grew biofilms of S. oneidensis in LM medium for 12 h, and subsequently switched the medium to a LM medium amended with 10 μg/ml rifampicin for 10 or 40 minutes, respectively. After that time period, the medium flow was stopped to induce detachment.
External addition of c-di-GMP reversibly prevents biofilm detachment. […] We, therefore, predicted that amending the flow through medium of a biofilm in a hydrodynamic system with c-di-GMP should prevent the induction of detachment after applying a stop-of-flow. To test this hypothesis, biofilms of wild type S. oneidensis were grown in LM medium. […] After 30 min, the flow was stopped to induce detachment and the non-detached biomass was quantified. […]
Microscopic visualization of and image acquisition from biofilms took place at the Stanford Biofilm Research Center using an upright Zeiss LSM510 Confocal Laser Scanning Microscope (Carl Zeiss, Jena, Germany) equipped with the following objectives: 10×/0.3 Plan-Neofluar, 20×/0.5W Achroplan, and 40×/1.2W C-Apochromat. […] Biofilm parameters, such as biomass, and average biofilm thickness were quantified with the program COMSTAT (Heydorn et al., 2000).

CO[C@H]1/C=C/O[C@@]2(C)Oc3c(C)c(O)c4c(O)c(c(/C=N/N5CCN(C)CC5)c(O)c4c3C2=O)NC(=O)/C(C)=C\C=C\[C@H](C)[C@H](O)[C@@H](C)[C@@H](O)[C@@H](C)[C@H](OC(C)=O)[C@@H]1C [rifampicin]
detachment after stop-of-flow: detached to the same extent as the untreated cells
